# Reference: the supplement of paper PMC8728848
# The other results are listed elsewhere or left out.
# B1: CTLX (Homo sapiens), Q6UXS0 (protein)
# chain: SLCPLFWMEFKGHCYRFFPLNKTWAEADLYCSEFSVGRKSAKLASIHSWEENVFVYDLVNSCVPGIPADVWTGLHDHRQEGQFEWTDGSSYDYSYWDGSQPDDGVHADPEEEDCVQIWYRPTSALRSWNDNTCSRKFPFVCKIPSLTIH
# Assays:
# Experiment in all cases: glycan array binding signal (z-score within array); higher = stronger binding
# Settings in all cases: glycan notation: IUPAC condensed, linker removed
# [1] = target: Fuc(a1-2)Gal
# In short: (§1)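 From the Consortium for Functional Glycomics database, 3228 arrays were curated, keeping only those whose protein sequence was available. Binding is given as a within-array Z-score averaged across arrays sharing a protein sequence and across linkers. Negative Z-scores can be read as non-binding.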
# [2] = target: Fuc(a1-2)Gal(b1-3)GalNAc
# In short: as §1
# [3] = target: Fuc(a1-2)Gal(b1-3)GalNAc(b1-3)Gal
# In short: as §1
# [4] = target: Fuc(a1-2)Gal(b1-3)GalNAc(b1-3)Gal(a1-4)Gal(b1-4)Glc
# In short: as §1
# [5] = target: Fuc(a1-2)Gal(b1-3)GalNAc(b1-4)[Neu5Ac(a2-3)]Gal(b1-4)Glc
# In short: as §1
# [6] = target: Fuc(a1-2)Gal(b1-3)GlcNAc
# In short: as §1
# [7] = target: Fuc(a1-2)Gal(b1-3)GlcNAc(b1-2)Man(a1-3)[Fuc(a1-2)Gal(b1-3)GlcNAc(b1-2)Man(a1-6)]Man(b1-4)GlcNAc(b1-4)GlcNAc
# In short: as §1
# [8] = target: Fuc(a1-2)Gal(b1-3)GlcNAc(b1-3)Gal(b1-4)Glc
# In short: as §1
# [9] = target: Fuc(a1-2)Gal(b1-3)GlcNAc(b1-3)[Gal(b1-4)[Fuc(a1-3)]GlcNAc(b1-6)]Gal(b1-4)Glc
# In short: as §1
# [10] = target: Fuc(a1-2)Gal(b1-3)[Fuc(a1-4)]GlcNAc
# In short: as §1
# [11] = target: Fuc(a1-2)Gal(b1-3)[Fuc(a1-4)]GlcNAc(b1-2)Man(a1-3)[Fuc(a1-2)Gal(b1-3)[Fuc(a1-4)]GlcNAc(b1-2)Man(a1-6)]Man(b1-4)GlcNAc(b1-4)GlcNAc
# In short: as §1
# [12] = target: Fuc(a1-2)Gal(b1-4)Glc
# In short: as §1
# [13] = target: Fuc(a1-2)Gal(b1-4)Glc6S
# In short: as §1
# [14] = target: Fuc(a1-2)Gal(b1-4)GlcNAc
# In short: as §1
# [15] = target: Fuc(a1-2)Gal(b1-4)GlcNAc(b1-2)Man(a1-3)[Fuc(a1-2)Gal(b1-4)GlcNAc(b1-2)Man(a1-6)]Man(b1-4)GlcNAc(b1-4)GlcNAc
# In short: as §1
# [16] = target: Fuc(a1-2)Gal(b1-4)GlcNAc(b1-3)Gal(b1-4)GlcNAc
# In short: as §1
# [17] = target: Fuc(a1-2)Gal(b1-4)GlcNAc(b1-3)Gal(b1-4)GlcNAc(b1-3)Gal(b1-4)GlcNAc
# In short: as §1
# [18] = target: Fuc(a1-2)Gal(b1-4)GlcNAc6S
# In short: as §1
# [19] = target: Fuc(a1-2)Gal(b1-4)[Fuc(a1-3)]GlcNAc
# In short: as §1
# [20] = target: Fuc(a1-2)Gal(b1-4)[Fuc(a1-3)]GlcNAc(b1-2)Man(a1-3)[Fuc(a1-2)Gal(b1-4)[Fuc(a1-3)]GlcNAc(b1-2)Man(a1-6)]Man(b1-4)GlcNAc(b1-4)GlcNAc
# In short: as §1
# [21] = target: Fuc(a1-2)Gal(b1-4)[Fuc(a1-3)]GlcNAc(b1-3)Gal(b1-4)[Fuc(a1-3)]GlcNAc
# In short: as §1
# [22] = target: Fuc(a1-2)Gal(b1-4)[Fuc(a1-3)]GlcNAc(b1-3)Gal(b1-4)[Fuc(a1-3)]GlcNAc(b1-3)Gal(b1-4)[Fuc(a1-3)]GlcNAc
# In short: as §1
# [23] = target: Fuc(a1-2)Gal6S(b1-4)Glc
# In short: as §1
# [24] = target: Fuc(a1-2)Gal6S(b1-4)Glc6S
# In short: as §1
# [25] = target: Fuc(a1-2)Gal6S(b1-4)GlcNAc
# In short: as §1
# [26] = target: Fuc(a1-2)[Gal(a1-3)]Gal
# In short: as §1
# [27] = target: Fuc(a1-2)[Gal(a1-3)]Gal(b1-3)GlcNAc
# In short: as §1
# [28] = target: Fuc(a1-2)[Gal(a1-3)]Gal(b1-3)GlcNAc(b1-2)Man(a1-3)[Fuc(a1-2)[Gal(a1-3)]Gal(b1-3)GlcNAc(b1-2)Man(a1-6)]Man(b1-4)GlcNAc(b1-4)GlcNAc
# In short: as §1
# [29] = target: Fuc(a1-2)[Gal(a1-3)]Gal(b1-4)Glc
# In short: as §1
# [30] = target: Fuc(a1-2)[Gal(a1-3)]Gal(b1-4)GlcNAc
# In short: as §1
binder,measurement,setting,value
B1,glycan array binding signal (z-score),[1],-0.994
same,glycan array binding signal (z-score),[2],1.99
same,glycan array binding signal (z-score),[3],0.292
same,glycan array binding signal (z-score),[4],-0.375
same,glycan array binding signal (z-score),[5],0.814
same,glycan array binding signal (z-score),[6],-0.528
same,glycan array binding signal (z-score),[7],1.62
same,glycan array binding signal (z-score),[8],-0.331
same,glycan array binding signal (z-score),[9],0.273
same,glycan array binding signal (z-score),[10],-0.189
same,glycan array binding signal (z-score),[11],1.46
same,glycan array binding signal (z-score),[12],0.198
same,glycan array binding signal (z-score),[13],-0.666
same,glycan array binding signal (z-score),[14],0.14
same,glycan array binding signal (z-score),[15],-0.221
same,glycan array binding signal (z-score),[16],0.681
same,glycan array binding signal (z-score),[17],1.56
same,glycan array binding signal (z-score),[18],-0.548
same,glycan array binding signal (z-score),[19],-0.691
same,glycan array binding signal (z-score),[20],3.01
same,glycan array binding signal (z-score),[21],-0.669
same,glycan array binding signal (z-score),[22],1.57
same,glycan array binding signal (z-score),[23],0.894
same,glycan array binding signal (z-score),[24],-0.84
same,glycan array binding signal (z-score),[25],-0.241
same,glycan array binding signal (z-score),[26],-0.251
same,glycan array binding signal (z-score),[27],0.022
same,glycan array binding signal (z-score),[28],-0.497
same,glycan array binding signal (z-score),[29],1.18
same,glycan array binding signal (z-score),[30],-0.689
